Laboratory results from article PMC9788671.
No constants are given. Whether binding was seen depends on the method and setting. Binding seen in cells or lysates may run through a third protein. A yes stands for co-enrichment or nearness to the bait. Other partners may have been found.

Chains of the proteins cited; added tags and fusions are not shown. Residues count along the entry.
UniProt Q9NZV8: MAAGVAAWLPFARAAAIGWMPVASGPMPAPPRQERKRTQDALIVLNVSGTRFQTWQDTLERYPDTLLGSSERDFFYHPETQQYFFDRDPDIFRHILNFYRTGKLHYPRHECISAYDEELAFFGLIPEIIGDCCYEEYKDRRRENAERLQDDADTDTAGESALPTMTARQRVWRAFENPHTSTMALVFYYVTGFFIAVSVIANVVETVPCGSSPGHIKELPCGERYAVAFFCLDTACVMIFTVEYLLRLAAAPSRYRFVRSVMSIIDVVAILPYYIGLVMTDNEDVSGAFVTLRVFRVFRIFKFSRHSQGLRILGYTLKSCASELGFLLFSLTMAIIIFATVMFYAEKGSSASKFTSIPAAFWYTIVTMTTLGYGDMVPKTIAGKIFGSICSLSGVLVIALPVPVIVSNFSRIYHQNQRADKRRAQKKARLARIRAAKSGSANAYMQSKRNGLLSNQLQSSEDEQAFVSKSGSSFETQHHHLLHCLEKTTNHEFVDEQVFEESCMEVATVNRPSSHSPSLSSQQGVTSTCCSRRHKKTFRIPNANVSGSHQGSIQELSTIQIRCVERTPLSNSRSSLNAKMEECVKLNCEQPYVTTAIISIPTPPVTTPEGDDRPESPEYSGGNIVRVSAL
UniProt P69897: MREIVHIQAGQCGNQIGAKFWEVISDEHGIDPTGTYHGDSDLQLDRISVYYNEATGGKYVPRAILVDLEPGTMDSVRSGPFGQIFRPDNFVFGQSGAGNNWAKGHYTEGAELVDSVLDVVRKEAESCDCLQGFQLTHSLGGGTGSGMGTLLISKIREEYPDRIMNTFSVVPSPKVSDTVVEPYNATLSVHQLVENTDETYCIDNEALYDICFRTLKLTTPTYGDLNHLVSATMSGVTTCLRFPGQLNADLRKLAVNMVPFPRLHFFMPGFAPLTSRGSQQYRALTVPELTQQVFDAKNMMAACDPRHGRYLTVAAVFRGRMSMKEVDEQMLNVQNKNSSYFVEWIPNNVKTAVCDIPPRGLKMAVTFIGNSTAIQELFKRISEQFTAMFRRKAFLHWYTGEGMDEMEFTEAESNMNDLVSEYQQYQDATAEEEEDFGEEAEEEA
UniProt G3V7V3: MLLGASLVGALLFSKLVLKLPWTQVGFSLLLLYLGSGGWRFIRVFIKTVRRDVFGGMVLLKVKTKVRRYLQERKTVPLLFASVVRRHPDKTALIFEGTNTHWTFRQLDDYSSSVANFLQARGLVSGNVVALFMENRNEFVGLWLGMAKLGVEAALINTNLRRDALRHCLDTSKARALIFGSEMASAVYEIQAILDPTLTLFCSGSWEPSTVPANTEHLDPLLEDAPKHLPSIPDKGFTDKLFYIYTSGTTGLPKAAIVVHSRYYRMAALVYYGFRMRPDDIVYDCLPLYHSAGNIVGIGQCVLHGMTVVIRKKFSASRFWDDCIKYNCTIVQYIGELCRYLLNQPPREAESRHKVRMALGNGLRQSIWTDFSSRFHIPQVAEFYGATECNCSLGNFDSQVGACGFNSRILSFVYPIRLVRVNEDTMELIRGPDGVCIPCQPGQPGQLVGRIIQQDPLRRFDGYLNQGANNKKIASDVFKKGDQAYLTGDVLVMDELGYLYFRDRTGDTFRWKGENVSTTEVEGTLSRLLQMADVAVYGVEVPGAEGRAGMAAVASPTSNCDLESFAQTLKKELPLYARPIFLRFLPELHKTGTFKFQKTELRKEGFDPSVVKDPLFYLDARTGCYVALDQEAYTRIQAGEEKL
UniProt P45592: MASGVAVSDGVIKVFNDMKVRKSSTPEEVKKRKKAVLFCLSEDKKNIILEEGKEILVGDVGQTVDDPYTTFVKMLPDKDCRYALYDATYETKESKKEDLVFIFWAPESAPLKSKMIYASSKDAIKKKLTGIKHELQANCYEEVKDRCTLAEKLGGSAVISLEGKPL
UniProt P12346, residues 20-698: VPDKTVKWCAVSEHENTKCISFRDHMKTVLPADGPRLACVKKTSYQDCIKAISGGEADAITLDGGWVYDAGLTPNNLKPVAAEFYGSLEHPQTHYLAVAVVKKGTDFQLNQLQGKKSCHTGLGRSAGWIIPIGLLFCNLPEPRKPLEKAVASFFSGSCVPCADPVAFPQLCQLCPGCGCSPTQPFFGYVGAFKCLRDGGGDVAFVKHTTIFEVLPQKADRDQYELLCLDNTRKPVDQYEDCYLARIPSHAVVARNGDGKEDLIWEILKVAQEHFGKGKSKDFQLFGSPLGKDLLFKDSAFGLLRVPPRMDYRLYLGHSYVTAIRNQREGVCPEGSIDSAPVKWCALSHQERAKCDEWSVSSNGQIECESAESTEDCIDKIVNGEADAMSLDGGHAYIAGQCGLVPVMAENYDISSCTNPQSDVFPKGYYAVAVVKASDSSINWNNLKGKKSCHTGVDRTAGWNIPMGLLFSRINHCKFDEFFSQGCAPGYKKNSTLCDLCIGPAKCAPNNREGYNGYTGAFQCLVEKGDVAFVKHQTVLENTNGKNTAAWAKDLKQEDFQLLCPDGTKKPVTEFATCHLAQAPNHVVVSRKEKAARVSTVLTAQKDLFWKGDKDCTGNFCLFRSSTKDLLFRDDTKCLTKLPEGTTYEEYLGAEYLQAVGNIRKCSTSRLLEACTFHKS
UniProt P62260: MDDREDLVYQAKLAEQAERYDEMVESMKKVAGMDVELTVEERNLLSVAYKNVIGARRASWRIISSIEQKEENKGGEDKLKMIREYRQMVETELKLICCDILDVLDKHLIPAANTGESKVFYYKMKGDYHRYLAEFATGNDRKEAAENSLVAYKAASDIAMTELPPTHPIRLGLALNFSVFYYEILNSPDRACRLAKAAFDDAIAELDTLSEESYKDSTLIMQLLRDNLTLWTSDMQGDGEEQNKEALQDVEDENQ
UniProt A0A0G2K677: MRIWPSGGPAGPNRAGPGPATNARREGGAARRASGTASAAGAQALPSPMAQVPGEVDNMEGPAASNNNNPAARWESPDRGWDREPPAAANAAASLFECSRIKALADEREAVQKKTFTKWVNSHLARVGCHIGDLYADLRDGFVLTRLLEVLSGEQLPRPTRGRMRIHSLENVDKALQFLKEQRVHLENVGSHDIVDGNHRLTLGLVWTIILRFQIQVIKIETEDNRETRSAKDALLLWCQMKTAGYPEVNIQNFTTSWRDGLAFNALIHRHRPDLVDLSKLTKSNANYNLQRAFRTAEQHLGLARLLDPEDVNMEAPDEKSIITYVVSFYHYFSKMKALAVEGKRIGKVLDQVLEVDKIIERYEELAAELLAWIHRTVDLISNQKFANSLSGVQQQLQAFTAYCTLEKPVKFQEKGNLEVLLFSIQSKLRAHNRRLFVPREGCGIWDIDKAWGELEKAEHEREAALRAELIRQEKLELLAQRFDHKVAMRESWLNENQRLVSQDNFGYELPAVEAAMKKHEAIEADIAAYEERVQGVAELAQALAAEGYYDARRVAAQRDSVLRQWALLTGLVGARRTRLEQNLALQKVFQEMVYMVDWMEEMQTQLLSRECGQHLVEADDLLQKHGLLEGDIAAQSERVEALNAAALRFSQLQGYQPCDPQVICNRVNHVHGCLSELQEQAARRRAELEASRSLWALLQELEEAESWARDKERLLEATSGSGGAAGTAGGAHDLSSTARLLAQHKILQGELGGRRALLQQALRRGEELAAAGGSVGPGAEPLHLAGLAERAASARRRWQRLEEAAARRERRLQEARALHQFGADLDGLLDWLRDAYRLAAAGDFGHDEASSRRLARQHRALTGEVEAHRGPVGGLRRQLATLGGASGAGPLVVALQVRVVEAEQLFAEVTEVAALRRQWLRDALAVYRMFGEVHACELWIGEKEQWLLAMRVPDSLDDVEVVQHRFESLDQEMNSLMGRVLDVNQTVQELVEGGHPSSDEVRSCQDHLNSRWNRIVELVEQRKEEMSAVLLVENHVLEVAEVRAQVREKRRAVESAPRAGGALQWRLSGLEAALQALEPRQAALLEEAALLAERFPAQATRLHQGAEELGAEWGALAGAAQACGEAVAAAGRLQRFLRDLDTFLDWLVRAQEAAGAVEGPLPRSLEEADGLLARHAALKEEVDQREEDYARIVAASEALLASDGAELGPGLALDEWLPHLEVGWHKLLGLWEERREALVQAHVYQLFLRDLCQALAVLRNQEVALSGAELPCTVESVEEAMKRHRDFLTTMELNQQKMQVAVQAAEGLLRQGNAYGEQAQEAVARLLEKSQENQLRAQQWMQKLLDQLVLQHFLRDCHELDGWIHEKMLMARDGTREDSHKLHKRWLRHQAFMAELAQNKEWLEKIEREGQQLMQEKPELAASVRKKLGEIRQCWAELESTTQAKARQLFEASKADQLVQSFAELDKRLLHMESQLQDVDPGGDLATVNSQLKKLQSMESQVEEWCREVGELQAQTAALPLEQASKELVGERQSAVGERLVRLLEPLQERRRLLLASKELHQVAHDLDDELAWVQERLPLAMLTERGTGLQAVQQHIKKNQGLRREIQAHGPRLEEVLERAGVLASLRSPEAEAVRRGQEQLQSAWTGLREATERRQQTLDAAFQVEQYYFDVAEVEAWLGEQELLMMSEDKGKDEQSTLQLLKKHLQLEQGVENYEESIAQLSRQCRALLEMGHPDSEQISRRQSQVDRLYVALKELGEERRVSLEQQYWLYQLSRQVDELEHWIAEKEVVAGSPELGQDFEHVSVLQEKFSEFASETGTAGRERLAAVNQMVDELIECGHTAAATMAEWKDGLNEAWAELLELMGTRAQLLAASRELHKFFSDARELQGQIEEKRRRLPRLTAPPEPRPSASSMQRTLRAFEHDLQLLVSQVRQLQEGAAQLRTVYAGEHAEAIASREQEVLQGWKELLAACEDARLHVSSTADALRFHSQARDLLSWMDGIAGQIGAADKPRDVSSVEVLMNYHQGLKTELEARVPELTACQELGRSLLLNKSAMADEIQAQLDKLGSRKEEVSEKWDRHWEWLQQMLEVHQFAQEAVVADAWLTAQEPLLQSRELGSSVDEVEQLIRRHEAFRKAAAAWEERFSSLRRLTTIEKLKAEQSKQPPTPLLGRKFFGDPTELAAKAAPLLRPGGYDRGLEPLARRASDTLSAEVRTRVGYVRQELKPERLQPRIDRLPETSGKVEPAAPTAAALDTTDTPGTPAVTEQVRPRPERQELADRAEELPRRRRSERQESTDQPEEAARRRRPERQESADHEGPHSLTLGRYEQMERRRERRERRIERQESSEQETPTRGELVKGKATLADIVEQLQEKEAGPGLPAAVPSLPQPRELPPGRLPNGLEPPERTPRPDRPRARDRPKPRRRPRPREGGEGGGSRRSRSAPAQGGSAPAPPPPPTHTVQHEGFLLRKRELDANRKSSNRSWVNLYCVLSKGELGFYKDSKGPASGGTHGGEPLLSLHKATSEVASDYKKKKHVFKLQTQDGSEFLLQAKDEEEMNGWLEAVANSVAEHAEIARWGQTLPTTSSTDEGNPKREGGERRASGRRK
UniProt Q99P99: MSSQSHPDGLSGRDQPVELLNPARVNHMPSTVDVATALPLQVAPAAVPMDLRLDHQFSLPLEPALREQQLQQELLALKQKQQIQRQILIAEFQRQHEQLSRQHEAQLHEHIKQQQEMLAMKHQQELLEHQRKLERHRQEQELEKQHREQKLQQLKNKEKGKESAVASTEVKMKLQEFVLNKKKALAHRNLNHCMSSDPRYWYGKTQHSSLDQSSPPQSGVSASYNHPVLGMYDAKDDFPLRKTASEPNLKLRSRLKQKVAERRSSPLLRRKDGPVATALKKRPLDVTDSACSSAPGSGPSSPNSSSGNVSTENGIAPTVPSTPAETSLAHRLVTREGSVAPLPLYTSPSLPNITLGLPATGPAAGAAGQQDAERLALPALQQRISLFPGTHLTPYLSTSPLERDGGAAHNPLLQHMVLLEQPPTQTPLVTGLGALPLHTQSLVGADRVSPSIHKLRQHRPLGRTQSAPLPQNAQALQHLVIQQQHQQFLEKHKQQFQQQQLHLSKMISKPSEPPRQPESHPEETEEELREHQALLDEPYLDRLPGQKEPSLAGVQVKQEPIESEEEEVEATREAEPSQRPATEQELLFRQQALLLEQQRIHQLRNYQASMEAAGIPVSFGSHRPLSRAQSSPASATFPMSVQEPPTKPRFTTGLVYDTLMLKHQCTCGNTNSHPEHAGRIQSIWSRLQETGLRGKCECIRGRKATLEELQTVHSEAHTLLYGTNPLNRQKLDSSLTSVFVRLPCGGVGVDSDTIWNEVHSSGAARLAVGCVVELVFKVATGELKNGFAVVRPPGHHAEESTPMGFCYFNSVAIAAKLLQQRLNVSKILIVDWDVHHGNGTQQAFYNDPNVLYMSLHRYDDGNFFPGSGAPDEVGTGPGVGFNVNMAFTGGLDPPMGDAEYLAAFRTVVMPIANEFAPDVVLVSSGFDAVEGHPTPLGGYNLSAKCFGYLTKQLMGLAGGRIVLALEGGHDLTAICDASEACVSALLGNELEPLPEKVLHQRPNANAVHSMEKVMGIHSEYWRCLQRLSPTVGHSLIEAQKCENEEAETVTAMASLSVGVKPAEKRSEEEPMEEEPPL

biological target: TAP-Kv4.2 (human) (UniProt Q9NZV8); assay: affinity purification with mass spectrometry; TAP-Kv4.2 expressed by lentivirus in rat hippocampal neurons, harvested at DIV14; weak lysis buffer of the kit (0.1% NP-40); streptavidin resin, then calmodulin resin; gel cut into high and low molecular weight fragments; no MS of the control sample

| binding | Substance |
| --- | --- |
| binds | Bag6 (from UniProt Q6MG49 1-1146) |
| binds | Eif2c2 (from UniProt Q9QZ81 1-860) |
| binds | Hnrnpul2 (from UniProt D4ABT8 1-736) |
| binds | Eno1 (from UniProt P04764 1-434) |
| binds | Stxbp1 (from UniProt P61765 1-594) |
| binds | Hsp90ab1 (from UniProt P34058 1-724) |
| binds | Vim (from UniProt P31000 1-466) |
| binds | Atp2a1 (from UniProt Q64578 1-994) |
| binds | Alg2 (from UniProt G3V6U3) |
| binds | Psmc3 (from UniProt Q63569 1-439) |
| binds | Psmd2 (from UniProt Q4FZT9 1-908) |
| binds | Idh3B (from UniProt Q68FX0 35-385) |
| binds | Tubb4b (from UniProt Q6P9T8 1-445) |
| binds | Ckap4 (from UniProt D3ZH41 1-575) |
| binds | Acsl4 (from UniProt O35547 1-711) |
| binds | C3 (from UniProt P01026 25-1663) |
| binds | Mark2 (from UniProt O08679 1-722) |
| binds | Ncl (from UniProt P13383 1-713) |
| binds | Ddb1 (from UniProt Q9ESW0 1-1140) |
| binds | Ckm (from UniProt P00564 1-381) |
| binds | Alb (from UniProt P02770 25-608) |
| binds | Pvalb (from UniProt P02625 1-110) |

| binding | Substance |
| --- | --- |
| binds | Hnrnpa2b1 (from UniProt A7VJC2 1-353) |
| binds | Tubb6 (from UniProt A6IXU7 1-447) |
| binds | Atp5b (from UniProt P10719 47-529) |
| binds | Dync1li1 (from UniProt Q9QXU8 1-523) |
| binds | Ppp2r1a (from UniProt Q5XI34 1-589) |
| binds | Syn2 (from UniProt Q63537 1-586) |
| binds | Hbb (from UniProt P02091 1-147) |
| binds | Hspa1a (from UniProt P0DMW0 1-641) |
| binds | Ipo7 (from UniProt D4AE96 1-1038) |
| binds | Madd (from UniProt O08873 1-1602) |
| binds | Psmc4 (from UniProt Q63570 1-418) |
| binds | Psmd3 (from UniProt A6HIT6 1-530) |
| binds | Rph3a (from UniProt P47709 1-684) |
| binds | Atp1a3 (from UniProt P06687 1-1013) |
| binds | Hspa2 (from UniProt P14659 1-633) |
| binds | Hspa9 (from UniProt P48721 47-679) |
| binds | Clu (from UniProt P05371 22-447) |
| binds | Pkm (from UniProt P11980 1-531) |
| binds | Ndufs1 (from UniProt Q66HF1 24-727) |
| binds | Gapdh (from UniProt P04797 1-333) |
| binds | Dnaja1 (from UniProt P63036 1-397) |
| binds | Eno3 (from UniProt P15429 1-434) |

| binding | Substance |
| --- | --- |
| binds | Mark1 (from UniProt O08678 1-793) |
| binds | Sv2a (from UniProt Q02563 1-742) |
| binds | Bsn (from UniProt O88778 1-3938) |
| binds | Tubb5 (from UniProt P69897 1-444) |
| binds | Atp12a (from UniProt P54708 1-1036) |
| binds | Atp2a2 (from UniProt P11507 1-1043) |
| binds | Psmc1 (from UniProt P62193 1-440) |
| binds | Gfap (from UniProt P47819 1-430) |
| binds | Kpnb1 (from UniProt P52296 1-875) |
| binds | Ca2 (from UniProt P27139 1-260) |
| binds | Hadha (from UniProt Q64428 37-763) |
| binds | Slc27a4 (from UniProt G3V7V3 1-643) |
| binds | Hspd1 (from UniProt P63039 27-573) |
| binds | Fn1 (from UniProt P04937 25-2477) |
| binds | Nsf (from UniProt Q9QUL6 1-744) |
| binds | Kif2a (from UniProt Q9WV63 1-705) |
| binds | Ctnnb1 (from UniProt Q9WU82 1-781) |
| binds | Cfl1 (from UniProt P45592 1-166) |
| binds | Tf (from UniProt P12346 20-698) |
| binds | Amfr (from UniProt A0A0G2K437 1-770) |
| binds | Syt1 (from UniProt P21707 1-421) |
| binds | Tpi1 (from UniProt P48500 1-249) |

| binding | Substance |
| --- | --- |
| binds | Usp7 (from UniProt Q4VSI4 1-1103) |
| binds | Eef1a1 (from UniProt P62630 1-462) |
| binds | DPP10 (from UniProt Q6Q629 1-796) |
| binds | Dnaja2 (from UniProt O35824 1-412) |
| binds | Psmc5 (from UniProt P62198 1-406) |
| binds | Dpysl3 (from UniProt Q62952 1-570) |
| binds | Numbl (from UniProt A1L1I3 1-614) |
| binds | Atp6v0a1 (from UniProt P25286 1-838) |
| binds | Prkca (from UniProt P05696 1-672) |
| binds | Rhot1 (from UniProt A1L1L6 1-631) |
| binds | Crmp1 (from UniProt Q62950 1-572) |
| binds | Slc27a1 (from UniProt P97849 1-646) |
| binds | Syn1 (from UniProt P09951 1-704) |
| binds | Kif5a (from UniProt Q6QLM7 1-1027) |
| binds | Syn3 (from UniProt O70441 1-579) |
| binds | Gsn (from UniProt Q68FP1 26-780) |
| binds | Elavl2 (from UniProt Q8CH84 1-359) |
| binds | Kidins220 (from UniProt Q9EQG6 1-1762) |
| binds | Hnrnpa1 (from UniProt P04256 1-320) |
| binds | Capza2 (from UniProt Q3T1K5 1-286) |
| binds | Tcp1 (from UniProt P28480 1-556) |

biological target: TAP-Kv4.2 (human) (UniProt Q9NZV8); assay: affinity purification with mass spectrometry; TAP-Kv4.2 expressed by lentivirus in rat hippocampal neurons, harvested at DIV14; strong lysis buffer (1% Triton X-100, 0.5% deoxycholate in PBS, pH 7.4); streptavidin resin, then calmodulin resin; gel cut into high and low molecular weight fragments; no MS of the control sample

| binding | Substance |
| --- | --- |
| binds | Nf1 (from UniProt P97526 1-2820) |
| binds | Ywhae (from UniProt P62260 1-255) |
| binds | Scn1a (from UniProt P04774 1-2009) |
| binds | Map1a (from UniProt P34926 1-2774) |
| binds | Map4 (from UniProt Q5M7W5 1-1057) |
| binds | Calml3 (from UniProt Q5U206 1-149) |
| binds | Myh10 (from UniProt Q9JLT0 1-1976) |
| binds | Ascc3 (from UniProt F1LPQ2 1-2197) |
| binds | Kras (from UniProt P08644 1-189) |
| binds | Tpr (from UniProt F1MA98 1-2360) |
| binds | Scn2a (from UniProt P04775 1-2005) |
| binds | Itpr1 (from UniProt P29994 1-2750) |
| binds | Safb (from UniProt O88453 1-931) |
| binds | Ndufa9 (from UniProt Q5BK63 36-377) |
| binds | Sipa1l1 (from UniProt O35412 1-1822) |
| binds | Rims2 (from UniProt Q9JIS1 1-1555) |
| binds | Tsc2 (from UniProt P49816 1-1809) |
| binds | Trip12 (from UniProt F1LP64 1-2025) |

| binding | Substance |
| --- | --- |
| binds | Tanc2 (from UniProt F1LTE0 1-1992) |
| binds | Mast1 (from UniProt Q810W7 1-1570) |
| binds | Map7d1 (from UniProt A0A8I5ZM56 1-849) |
| binds | Mylk2 (from UniProt P20689 1-610) |
| binds | Rab18 (from UniProt Q5EB77 1-206) |
| binds | Taf10 (from UniProt A6I7M8 1-218) |
| binds | Myo18a (from UniProt D3ZFD0 1-2044) |
| binds | Iqgap1 (from UniProt A0A8I6AJK7 1-1776) |
| binds | Arf6 (from UniProt P62332 1-175) |
| binds | Kif1b (from UniProt O88658 1-1816) |
| binds | Apc (from UniProt P70478 1-2842) |
| binds | Sptbn4 (from UniProt A0A0G2K677 1-2609) |
| binds | Tanc1 (from UniProt Q6F6B3 1-1849) |
| binds | Eif3a (from UniProt Q1JU68 1-1354) |
| binds | Caskin1 (from UniProt Q8VHK2 1-1430) |
| binds | Ppfia4 (from UniProt Q91Z80 1-1043) |
| binds | Hdac4 (from UniProt Q99P99 1-1077) |
| binds | Tjp1 (from UniProt A0A0G2K2P5 1-1765) |
